PubChem BioAssay AID1259259 – Sanger Institute | 2017

Assay: 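Synthetic lethal kinase partners of anchor drugs in colorectal cancer cells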 (primary screen)
Cell system: SW1463 human colorectal cancer cells
Knock-down reagent: siRNA pool against human genes
Conditions: DMSO vehicle, or one anchor drug: BYL719 at 1 µM, cetuximab at 5 µg/ml, or trametinib at 10 nM
Measurement: 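Viability as fraction of control pool 2 (non-targeting), replicate mean; knock-down robust z-score without any drug; synergy score averaged for each anchor drug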
Scale: robust z-score, knock-down alone: higher = more viable cells after knock-down; viability, knock-down alone: higher = more viable cells; synergy score with BYL719 and synergy score with cetuximab and synergy score with trametinib: higher = stronger synergy (synthetic lethal) with drug
Rule for the call: 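Knock-down called essential when its robust z-score without drug falls below -3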
Calls: active = essential: viability loss from knock-down alone; inactive = no change from knock-down alone
The whole screen tested 794 reagents; below is an unselected part. 9 of all reagents (1.1%) count as active. 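Calls rest on knock-down alone, not drug synergy; viability values seem capped at 1.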 Not stated in the record: the amount of reagent, the time to read-out.

| gene knocked down | robust z-score, knock-down alone | viability, knock-down alone (fraction of control) | synergy score with BYL719 | synergy score with cetuximab | synergy score with trametinib | outcome |
| --- | --- | --- | --- | --- | --- | --- |
| CSK (C-terminal Src kinase) | 0.225 | 0.942 | -0.0579 | -0.0835 | -0.0886 | inactive |
| MAP2K6 (mitogen-activated protein kinase kinase 6) | 1.13 | 1 | 0.0599 | 0.102 | 0.115 | inactive |
| PKLR (pyruvate kinase L/R) | -0.152 | 0.918 | -0.00556 | 0.0856 | -0.0805 | inactive |
| CDK13 (cyclin dependent kinase 13) | -0.477 | 0.897 | -0.0445 | -0.0314 | -0.0736 | inactive |
| PIK3CD | -0.142 | 0.919 | -0.0815 | 0.0147 | 0.0166 | inactive |
| MKNK1 (MAPK interacting serine/threonine kinase 1) | 0.648 | 0.969 | -0.0307 | 0.0193 | 0.148 | inactive |
| ATP23 | 1.13 | 1 | 0.134 | 0.132 | 0.119 | inactive |
| NEK10 (NIMA related kinase 10) | 0.194 | 0.94 | -0.0599 | 0.223 | 0.0935 | inactive |
| FLT3 (fms related receptor tyrosine kinase 3) | -0.308 | 0.908 | -0.0351 | -0.0527 | -0.0446 | inactive |
| NUAK1 (NUAK family kinase 1) | -2.2 | 0.786 | -0.214 | -0.0641 | -0.137 | inactive |
| GAK (cyclin G associated kinase) | 0.734 | 0.975 | 0.00144 | 0.00367 | 0.0912 | inactive |
| TEC (tec protein tyrosine kinase) | 1.13 | 1 | 0 | 0.0672 | 0.0236 | inactive |
| TP53BP1 (tumor protein p53 binding protein 1) | 1.13 | 1 | 0 | 0.00697 | 0.0857 | inactive |
| PDPK1 (3-phosphoinositide dependent protein kinase 1) | -0.952 | 0.867 | -0.0762 | 0.0366 | -0.0608 | inactive |
| CSF1R (colony stimulating factor 1 receptor) | 0.902 | 0.986 | 0.14 | 0.115 | 0.136 | inactive |
| FLT4 (fms related receptor tyrosine kinase 4) | -0.393 | 0.902 | -0.0976 | -0.122 | 0.048 | inactive |
| PAK6 (p21 (RAC1) activated kinase 6) | 1.13 | 1 | 0.142 | 0.252 | 0.076 | inactive |
| DAPK2 (death associated protein kinase 2) | 1.03 | 0.994 | 0.00926 | 0.104 | 0.03 | inactive |
| CDK11A (cyclin dependent kinase 11A) | -0.328 | 0.907 | -0.0305 | 0.114 | 0.0596 | inactive |

Entries listed so far whose gene name starts with C or c (4):
| gene knocked down | robust z-score, knock-down alone | viability, knock-down alone (fraction of control) | synergy score with BYL719 | synergy score with cetuximab | synergy score with trametinib | outcome |
| --- | --- | --- | --- | --- | --- | --- |
| CSK (C-terminal Src kinase) | 0.225 | 0.942 | -0.0579 | -0.0835 | -0.0886 | inactive |
| CDK13 (cyclin dependent kinase 13) | -0.477 | 0.897 | -0.0445 | -0.0314 | -0.0736 | inactive |
| CSF1R (colony stimulating factor 1 receptor) | 0.902 | 0.986 | 0.14 | 0.115 | 0.136 | inactive |
| CDK11A (cyclin dependent kinase 11A) | -0.328 | 0.907 | -0.0305 | 0.114 | 0.0596 | inactive |

The listing continues:
| gene knocked down | robust z-score, knock-down alone | viability, knock-down alone (fraction of control) | synergy score with BYL719 | synergy score with cetuximab | synergy score with trametinib | outcome |
| --- | --- | --- | --- | --- | --- | --- |
| CHKB (choline kinase beta) | -0.0247 | 0.926 | -0.0706 | 0.0126 | -0.0565 | inactive |
| CDKN2D (cyclin dependent kinase inhibitor 2D) | -0.842 | 0.874 | -0.105 | -0.021 | 0.0908 | inactive |
| NUAK2 (NUAK family kinase 2) | -0.308 | 0.908 | -0.00344 | 0.0357 | 0.0159 | inactive |
| PLK3 (polo like kinase 3) | 1.13 | 1 | 0.0702 | -0.02 | 0.0257 | inactive |
| CSNK2A1 (casein kinase 2 alpha 1) | 1.04 | 0.994 | -0.0057 | 0.0499 | 0.0337 | inactive |
| CDC73 (cell division cycle 73) | -1.47 | 0.833 | 0.00149 | 0.0423 | 0.0537 | inactive |
| PTK2 (protein tyrosine kinase 2) | -1.33 | 0.842 | 0.0207 | 0.146 | 0.0179 | inactive |
| ELP1 (elongator acetyltransferase complex subunit 1) | -0.383 | 0.903 | -0.0969 | -0.0134 | 0.133 | inactive |
| GSK3A (glycogen synthase kinase 3 alpha) | -0.594 | 0.889 | -0.0204 | 0.159 | 0.0717 | inactive |
| SIK1 (salt inducible kinase 1) | -0.812 | 0.875 | 0.0167 | -0.0464 | 0.0164 | inactive |
| CTCF (CCCTC-binding factor) | 1.13 | 1 | 0.112 | 0.0308 | 0.142 | inactive |
| TEK (TEK receptor tyrosine kinase) | -0.377 | 0.903 | -0.0965 | -0.0971 | -0.0924 | inactive |
| PRKCSH (PRKCSH beta subunit of glucosidase II) | -1.01 | 0.863 | 0.0397 | -0.00641 | 0.0313 | inactive |
| BCR (BCR activator of RhoGEF and GTPase) | -1.4 | 0.838 | -0.0979 | -0.169 | 0.0391 | inactive |
| PIP5K1A (phosphatidylinositol-4-phosphate 5-kinase type 1 alpha) | -1.93 | 0.804 | -0.0427 | 0.0324 | -0.148 | inactive |
| CAMK2A (calcium/calmodulin dependent protein kinase II alpha) | -0.09 | 0.922 | 0.0546 | -0.046 | -0.0703 | inactive |
| CSNK1G1 (casein kinase 1 gamma 1) | 1.13 | 1 | 0 | -0.0272 | 0.249 | inactive |
| FGR (FGR proto-oncogene, Src family tyrosine kinase) | 0.701 | 0.973 | -0.000512 | 0.108 | 0.273 | inactive |
| CDK12 (cyclin dependent kinase 12) | 0.489 | 0.959 | -0.0377 | 0.0568 | -0.0151 | inactive |
| SRPK1 (SRSF protein kinase 1) | -0.266 | 0.911 | -0.014 | -0.114 | 0.00919 | inactive |
| GRK7 (G protein-coupled receptor kinase 7) | -0.722 | 0.881 | -0.0452 | -0.0543 | 0.0729 | inactive |
| AXL (AXL receptor tyrosine kinase) | 0.0959 | 0.934 | -0.0662 | -0.0754 | -0.0492 | inactive |
| COQ8B (coenzyme Q8B) | -0.425 | 0.9 | 0.0353 | -0.0738 | 0.075 | inactive |
| PRKCA (protein kinase C alpha) | 0.198 | 0.94 | -0.0523 | 0.00905 | -0.0644 | inactive |
| CDK15 (cyclin dependent kinase 15) | -2.03 | 0.797 | -0.108 | -0.112 | -0.00374 | inactive |
| PRKCH (protein kinase C eta) | -0.0404 | 0.925 | -0.075 | -0.026 | 0.0793 | inactive |
| EFNB3 (ephrin B3) | -1.15 | 0.854 | -0.00946 | 0.0293 | -0.101 | inactive |
| CDC42BPG (CDC42 binding protein kinase gamma) | -0.509 | 0.895 | -0.0357 | -0.0114 | 0.126 | inactive |
| CASP8 (caspase 8) | -0.149 | 0.918 | -0.0559 | -0.0104 | -0.0153 | inactive |
| PKN1 (protein kinase N1) | 0.445 | 0.956 | 0.00921 | 0.131 | 0.0293 | inactive |
| PIK3C3 (phosphatidylinositol 3-kinase catalytic subunit type 3) | 0.845 | 0.982 | 0.0562 | 0.148 | 0.0424 | inactive |
